PubChem BioAssay AID652272 | Drosophila RNAi Screening Center, 2013

Purpose: 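Genome-wide knock-down search for components of Hedgehog signalling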 (primary screen)
System: Drosophila clone 8 (Cl8) cells
Knock-down reagent: long dsRNA against Drosophila genes
Detection: 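Plate reader light from a firefly reporter under a ptc promoter fragment that responds to Hedgehog, with Renilla light as transfection reference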
Direction: firefly Hh reporter signal: higher = more ptc reporter light; Renilla reference signal: higher = more Renilla control light
Call rule: 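Called a hit if the two-replicate mean z-score lies below -2 or above +3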
Calls: active = hit: reporter lowered or raised; inactive = not a hit
The deposit covers about 21,000 reagents; this is an unselected part of those that have a named target and a result. In the full data, 503 (2.4%) got an active call. 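Raw plate light values, not normalised; calls rest on replicate z-scores that were not deposited; hits include reporter decreases as well as increases.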 A number with no mark means an inactive call. Names joined by + are all predicted targets of the reagent. Reagent sequences are not shown. The record does not give: the amount of reagent, the time to read-out.

Ugt303B2 scored firefly Hh reporter signal, replicate 1 = 9.40e5; firefly Hh reporter signal, replicate 2 = 1.55e5; Renilla reference signal, replicate 1 = 50226; Renilla reference signal, replicate 2 = 3277.
mEFG1 gave firefly Hh reporter signal, replicate 1 = 84805; firefly Hh reporter signal, replicate 2 = 44353; Renilla reference signal, replicate 1 = 2589; Renilla reference signal, replicate 2 = 5344.
With knock-down of Ccdc58 + CG34116, the screen gave firefly Hh reporter signal, replicate 1 = 86323; firefly Hh reporter signal, replicate 2 = 99757; Renilla reference signal, replicate 1 = 2896; Renilla reference signal, replicate 2 = 2775.
Against Srrm1 the deposit lists firefly Hh reporter signal, replicate 1 = 48587; firefly Hh reporter signal, replicate 2 = 45634; firefly Hh reporter signal, replicate 3 = 79029; Renilla reference signal, replicate 1 = 4475; Renilla reference signal, replicate 2 = 5587.
Vm26Ab showed firefly Hh reporter signal, replicate 1 = 1.99e5; firefly Hh reporter signal, replicate 2 = 6.20e5; firefly Hh reporter signal, replicate 3 = 86054; Renilla reference signal, replicate 1 = 4700; Renilla reference signal, replicate 2 = 33745.
With knock-down of Lasp, the record shows firefly Hh reporter signal, replicate 1 = 72201; Renilla reference signal, replicate 1 = 1600; Renilla reference signal, replicate 2 = 3497.
CG13386 gave firefly Hh reporter signal, replicate 1 = 82041; firefly Hh reporter signal, replicate 2 = 50743; Renilla reference signal, replicate 1 = 2080; Renilla reference signal, replicate 2 = 4391.
After knock-down of CG18622 the results were firefly Hh reporter signal, replicate 1 = 61696; firefly Hh reporter signal, replicate 2 = 1.23e5; Renilla reference signal, replicate 1 = 1335; Renilla reference signal, replicate 2 = 2032.
With knock-down of CG43218, the record shows firefly Hh reporter signal, replicate 1 = 2.58e5; Renilla reference signal, replicate 1 = 6229.
Silencing of CG17777 gave: firefly Hh reporter signal, replicate 1 = 96151; firefly Hh reporter signal, replicate 2 = 1.85e5; Renilla reference signal, replicate 1 = 4237; Renilla reference signal, replicate 2 = 8010.
Against CG4597, the entry reads firefly Hh reporter signal, replicate 1 = 45763; firefly Hh reporter signal, replicate 2 = 42363; Renilla reference signal, replicate 1 = 5360; Renilla reference signal, replicate 2 = 3410.
Depletion of Bet1 gave: firefly Hh reporter signal, replicate 1 = 83494; firefly Hh reporter signal, replicate 2 = 94331; Renilla reference signal, replicate 1 = 1837; Renilla reference signal, replicate 2 = 2042.
spict gave firefly Hh reporter signal, replicate 1 = 1.00e5; firefly Hh reporter signal, replicate 2 = 55619; Renilla reference signal, replicate 1 = 4068; Renilla reference signal, replicate 2 = 2217.
After knock-down of CG34030, the record shows firefly Hh reporter signal, replicate 1 = 1.24e5; firefly Hh reporter signal, replicate 2 = 2.33e5; Renilla reference signal, replicate 1 = 3437; Renilla reference signal, replicate 2 = 9082.

2 entries from above, reformatted.
target	firefly Hh reporter signal, replicate 1	firefly Hh reporter signal, replicate 2	firefly Hh reporter signal, replicate 3	Renilla reference signal, replicate 1	Renilla reference signal, replicate 2
Ccdc58 + CG34116	86323	99757		2896	2775
Srrm1	48587	45634	79029	4475	5587
